Measured values taken from PMC5642512.
Results are given in words; binding and its absence hold for the method and conditions named. Binding seen in cells or lysates may run through a third protein. Some entries that bind do so weakly or less than the wild type.

Amino acid sequences for entries named in this document (tags omitted). A change or cut given only in a name is not applied to a line headed by its entry.
UniProt P22736: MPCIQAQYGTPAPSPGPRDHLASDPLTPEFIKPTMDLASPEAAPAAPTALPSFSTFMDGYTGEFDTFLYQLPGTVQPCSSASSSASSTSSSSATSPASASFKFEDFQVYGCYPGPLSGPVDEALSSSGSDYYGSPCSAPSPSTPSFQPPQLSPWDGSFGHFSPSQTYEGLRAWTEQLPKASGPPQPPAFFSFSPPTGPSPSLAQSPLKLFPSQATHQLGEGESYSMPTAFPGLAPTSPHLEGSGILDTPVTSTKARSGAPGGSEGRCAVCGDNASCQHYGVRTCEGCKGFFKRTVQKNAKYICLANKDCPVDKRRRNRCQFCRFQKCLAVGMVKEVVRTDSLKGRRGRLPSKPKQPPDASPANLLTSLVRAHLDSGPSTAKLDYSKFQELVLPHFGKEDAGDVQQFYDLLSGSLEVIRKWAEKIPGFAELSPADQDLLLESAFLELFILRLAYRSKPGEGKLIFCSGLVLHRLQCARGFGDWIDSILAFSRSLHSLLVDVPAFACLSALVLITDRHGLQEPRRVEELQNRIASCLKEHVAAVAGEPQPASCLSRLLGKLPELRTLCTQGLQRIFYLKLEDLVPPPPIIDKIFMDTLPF
UniProt P10415: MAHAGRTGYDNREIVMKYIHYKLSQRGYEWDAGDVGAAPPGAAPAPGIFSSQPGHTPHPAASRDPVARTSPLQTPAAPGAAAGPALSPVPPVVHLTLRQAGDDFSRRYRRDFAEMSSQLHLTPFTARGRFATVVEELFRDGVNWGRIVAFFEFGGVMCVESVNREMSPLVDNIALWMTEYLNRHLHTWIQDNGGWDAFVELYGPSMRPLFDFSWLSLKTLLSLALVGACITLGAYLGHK

Tests used:
Flag-tagged Nur77 [1] = biological target: Flag-tagged Nur77 (UniProt P22736); experiment: co-IP; Flag-Nur77 transfected alone or with Flag-Bcl-2, Flag-Bcl-2/S87A or Flag-Bcl-2/T56A into Bcl-2-depleted HeLa cells; with or without CCE9; lysates immunoprecipitated with anti-Flag antibody, blotted with anti-Myc and anti-Flag (as the legend prints)
Flag-tagged Nur77 [2] = biological target: Flag-tagged Nur77 (UniProt P22736); experiment: co-IP; Myc-Bcl-2 or Myc-Bcl-2/S87A and Flag-Nur77 co-transfected into HeLa229 or A549 cells; with or without CCE9 and SB203580; lysates immunoprecipitated with anti-Flag antibody, blotted with anti-Myc and anti-Flag

Row | binding (Flag-tagged Nur77 [1]) | binding (Flag-tagged Nur77 [2]) | Substance
1 | binds |  | Flag-Bcl-2 (from UniProt P10415 1-239)
2 |  | no binding | Myc-Bcl-2/S87A (from UniProt P10415 1-239)
3 |  | binds | Myc-tagged Bcl-2 (from UniProt P10415 1-239)
